# The other results are listed elsewhere or left out.
# The chains behind the UniProt entries cited, without tags or fusion partners.
# UniProt Q0JBA9, entry or part of it: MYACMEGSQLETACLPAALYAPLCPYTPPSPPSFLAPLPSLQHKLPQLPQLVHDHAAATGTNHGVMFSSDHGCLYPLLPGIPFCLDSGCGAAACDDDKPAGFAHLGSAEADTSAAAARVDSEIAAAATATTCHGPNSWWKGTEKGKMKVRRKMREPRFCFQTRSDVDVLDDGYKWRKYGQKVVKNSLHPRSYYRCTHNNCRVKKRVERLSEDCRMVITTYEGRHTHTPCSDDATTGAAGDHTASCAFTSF
# Biological target: OsWRKY34 (Oryza sativa, UniProt Q0JBA9 1-250)
# Assay: protein-binding microarray (RPBM); PBS, 2% BSA, 51.3 ng/ul salmon testes DNA, 50 uM zinc acetate, 200 nM TF, 25 C, 1 h; high values mean tight binding
# Conditions: protein: recombinant; tags: N-terminal polyhistidine and DsRed monomer fusion (pET32a); label: CyDye5-dUTP incorporated in the synthesized complementary strand; 3' TTTTT single-stranded linker to array surface; dsDNA, one strand shown
# Procedure, shortened: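 A custom Agilent array was converted to double-stranded form by primer extension with Cy5-dUTP and blocked with 2% BSA. Protein at 200 nM in PBS with 2% BSA, salmon testes DNA and 50 µM zinc acetate was applied for 1 h at 25 °C, followed by washing. The proteins were polyhistidine–DsRed N-terminal fusions of transcription factors, expressed in E. coli BL21-CodonPlus and Ni–NTA-purified. The binding signal is per-feature fluorescence intensity (arbitrary units) from an Axon 4000B scanner.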
row,Sequence,binding signal
1,AAGGGAGAGGGGAGAGATGGTGCTGCCGTGCCGAGCTCTTCGGAGTCACCTAGTGCAG,8590 fluorescence intensity (a.u.)
2,AGCTTGATACCTATGCATGAATTAATTGATTTTCTATTTCCGGAGTCACCTAGTGCAG,8840 fluorescence intensity (a.u.)
3,CGTGCACACTCACTATGTTTGAAAGACTGGCACTTCATATCGGAGTCACCTAGTGCAG,8300 fluorescence intensity (a.u.)
4,GCCCCGAGCCGAGACCGCTGGATAATGCAGCGCTTCTTACCGGAGTCACCTAGTGCAG,20100 fluorescence intensity (a.u.)
5,GGTTTCGTTGGTGGGGTTTTTTCATGGTGGCTAGGGTTTTCGGAGTCACCTAGTGCAG,51100 fluorescence intensity (a.u.)
6,CCGCCTCACCACTCGGATAAACACACACACACACACACACCGGAGTCACCTAGTGCAG,9680 fluorescence intensity (a.u.)
7,TTCTTCCTGATCTGCAGAGCTGCAGTCTCAGTCTGTCCTGCGGAGTCACCTAGTGCAG,8560 fluorescence intensity (a.u.)
8,ACCTGCATCCTCTAATCCCCGCGTGGGCGGCGCCTTGTCTCGGAGTCACCTAGTGCAG,8170 fluorescence intensity (a.u.)
9,GTAATTTTGTCTTTTCTATTTCTCAATGTGTAGGTTGAATCGGAGTCACCTAGTGCAG,9450 fluorescence intensity (a.u.)
10,ATCAATGACTCACATGTGCTGCCCACATGCACGTACTTAACGGAGTCACCTAGTGCAG,8710 fluorescence intensity (a.u.)
11,CAACTGATTGGTCTCACACCCGACCTAACGGCTAACGCAACGGAGTCACCTAGTGCAG,8130 fluorescence intensity (a.u.)
12,TTTTTTTTGCCACGTCACATGCTGTTCATCTGAGCAAACGCGGAGTCACCTAGTGCAG,8700 fluorescence intensity (a.u.)
13,TCTCCTTCCCCGGCAGTTATCTCTCCACCACACCTTTACTCGGAGTCACCTAGTGCAG,10000 fluorescence intensity (a.u.)
14,ATGTTAGATGAGTGTTTGGTTGGCTTCCACAAGTGTGGTACGGAGTCACCTAGTGCAG,10900 fluorescence intensity (a.u.)
15,GAGAGGAGGGGCGTTGCCAGGGAGAAGAGGGGTTGCGGGGCGGAGTCACCTAGTGCAG,10600 fluorescence intensity (a.u.)
16,AGAGCGTATATTCTTCTATTATACTCCCTCCGTTTTGAGTCGGAGTCACCTAGTGCAG,8910 fluorescence intensity (a.u.)
17,AATTCTCCTCTCACCGCCTCTCTTCTCTAACCAAAGTCTACGGAGTCACCTAGTGCAG,9400 fluorescence intensity (a.u.)
18,TTGACGGACTCTATCGATCTGTAATCTTCTGCATCAGATTCGGAGTCACCTAGTGCAG,9270 fluorescence intensity (a.u.)
19,TTTTTTTTCGCGAACTGAACACACCCTAAACTGAGCCTTTCGGAGTCACCTAGTGCAG,10300 fluorescence intensity (a.u.)
20,CGAGGTATATAACTATATATATAGGGCGGGTACCATTCTTCGGAGTCACCTAGTGCAG,13700 fluorescence intensity (a.u.)
21,TTTTTTTTCATTGTTTTTTTTGTTGTTTTGCGTATCTTAGCGGAGTCACCTAGTGCAG,11200 fluorescence intensity (a.u.)

# 4 consecutive records from above:
row,Sequence,binding signal
1,AAGGGAGAGGGGAGAGATGGTGCTGCCGTGCCGAGCTCTTCGGAGTCACCTAGTGCAG,8590 fluorescence intensity (a.u.)
2,AGCTTGATACCTATGCATGAATTAATTGATTTTCTATTTCCGGAGTCACCTAGTGCAG,8840 fluorescence intensity (a.u.)
3,CGTGCACACTCACTATGTTTGAAAGACTGGCACTTCATATCGGAGTCACCTAGTGCAG,8300 fluorescence intensity (a.u.)
4,GCCCCGAGCCGAGACCGCTGGATAATGCAGCGCTTCTTACCGGAGTCACCTAGTGCAG,20100 fluorescence intensity (a.u.)

# Going on with the list.

row,Sequence,binding signal
1,TTTGATTCGTGACAGGTGGTAGGAGAGCTAATTGTTCCTGCGGAGTCACCTAGTGCAG,8630 fluorescence intensity (a.u.)
2,TTCCGTGTGATCACTCATAGCTGTTCGCCTCATCGCCTATCGGAGTCACCTAGTGCAG,9960 fluorescence intensity (a.u.)
3,GCGGGTTGGGTAGTGTACACTAGTGTTTGTTTGCTTCGAGCGGAGTCACCTAGTGCAG,11600 fluorescence intensity (a.u.)
4,GGAGGTGCAGGGGTGCGGGGATTGGGAGGGGATGCTGGAGCGGAGTCACCTAGTGCAG,14500 fluorescence intensity (a.u.)
5,GTTCTAGTTGCTTGTACCAGTAGTACTTTCATTTCTCACCCGGAGTCACCTAGTGCAG,9140 fluorescence intensity (a.u.)
6,ATGTAGATTCTATCTCGATTTTCACTATTACGTTTCGAAACGGAGTCACCTAGTGCAG,8480 fluorescence intensity (a.u.)
7,GTACCTCTGTCAACCGAACCCGTTGGAGTTGCAGCTTTGCCGGAGTCACCTAGTGCAG,8080 fluorescence intensity (a.u.)
8,ACATTTTTTTCTCTCGTTTTGAGAATTGAGAAACCTTTTTCGGAGTCACCTAGTGCAG,9480 fluorescence intensity (a.u.)
9,TTGGAGGGGCGAGGTCAGCTGGGGTGTCAAATATGTAAAGCGGAGTCACCTAGTGCAG,10600 fluorescence intensity (a.u.)
10,GCCCCAACTAATCCGCTTTGATTTCAGCGTGTGTTTCGATCGGAGTCACCTAGTGCAG,13900 fluorescence intensity (a.u.)
11,TGTGGCTTTTTTGACTAGGTCTTCACCCCACGTGGCATTGCGGAGTCACCTAGTGCAG,12200 fluorescence intensity (a.u.)
12,TGGCAAGTCACCAAGTTGGAACCAAATCATTCGTTGTTTTCGGAGTCACCTAGTGCAG,8120 fluorescence intensity (a.u.)
13,GTTTTTTTGCCTCTGACCATTGAATCGCCTTGAGATTTTTCGGAGTCACCTAGTGCAG,9360 fluorescence intensity (a.u.)
14,TTCTGAATGTGATTGAATTAATTGGACTTGCGTTGACCTTCGGAGTCACCTAGTGCAG,11700 fluorescence intensity (a.u.)
15,TACCGAACCTTTGGCATATTGACCCTTTTGGCCTTTTATACGGAGTCACCTAGTGCAG,12200 fluorescence intensity (a.u.)
16,GATTAGAATCCGGGTGGGCTGTTTCCACCACAAGAAACTACGGAGTCACCTAGTGCAG,8990 fluorescence intensity (a.u.)
17,TGCCAAGTTTCTTCTCGCTCGTTCTGTTTTGATCGGCTAACGGAGTCACCTAGTGCAG,9560 fluorescence intensity (a.u.)
18,CTCTCTTCTTTTTATCTTATTCATATGTATTTATAGCTGACGGAGTCACCTAGTGCAG,10500 fluorescence intensity (a.u.)
19,CGTCATTTCCGTTTGGTGTTGTTGGTCACCCGAGTTGCAACGGAGTCACCTAGTGCAG,8820 fluorescence intensity (a.u.)
20,TATACTATTTCTTTCTTTTCCACCGTTGACGTTTTAGAACCGGAGTCACCTAGTGCAG,10400 fluorescence intensity (a.u.)
21,ACACCTCGCGACGACGACACACATGACACATATCCGTCCACGGAGTCACCTAGTGCAG,8740 fluorescence intensity (a.u.)

row,Sequence,binding signal
1,ATGTTTGCTAATCTTTTTTTTGGTGTTTTTCTCCTTGTGACGGAGTCACCTAGTGCAG,10200 fluorescence intensity (a.u.)
2,CAATTCAATCTGAGATTTGTACACCATGACATTTTCTTCACGGAGTCACCTAGTGCAG,8280 fluorescence intensity (a.u.)
3,GATTTCAAGGCAGTGATCAGCATATATCCGGATGTGGATTCGGAGTCACCTAGTGCAG,8040 fluorescence intensity (a.u.)
4,TAACTGATTCCGCGCTCTATCTTCCTCGCCTGTCTCCGCACGGAGTCACCTAGTGCAG,13800 fluorescence intensity (a.u.)
5,ATTATCGTTAGTTTCGGTCCAACCCTTGTTACGTGCAATCCGGAGTCACCTAGTGCAG,12900 fluorescence intensity (a.u.)
6,CTGCTCTCTCATCTCTTCCGTTTTGTCCATATTCCTTTAACGGAGTCACCTAGTGCAG,8050 fluorescence intensity (a.u.)
7,TCGGATGTCCCAAGCTCGCCGCGCCACCTCTGACGGCACCCGGAGTCACCTAGTGCAG,9340 fluorescence intensity (a.u.)
8,TTCTGTCGATTGAAGTTTAGCAATTCCGTTATTTTTATTTCGGAGTCACCTAGTGCAG,9330 fluorescence intensity (a.u.)
9,CTCGAGAGTTATTTATTATTTATATTTCCAAAGGTTTGACCGGAGTCACCTAGTGCAG,8400 fluorescence intensity (a.u.)
10,AACAAATACTATTTTTCAGCTTTTCTTTTTTGTTTCCTGACGGAGTCACCTAGTGCAG,8500 fluorescence intensity (a.u.)
11,GGGTACTTTTTTTACCCGGCCTTTATATCCAACCGGATATCGGAGTCACCTAGTGCAG,8590 fluorescence intensity (a.u.)
12,AATGCAGTTTGTTTTCCTTACACATGTTTTTTCTGTGTAACGGAGTCACCTAGTGCAG,8480 fluorescence intensity (a.u.)
13,GCACCCACTGCCCAATGAGACAGCACCACCCGCATCATTCCGGAGTCACCTAGTGCAG,8190 fluorescence intensity (a.u.)
14,CGGGGCGTGACAGACCATTTCCTTGATATCACTTCAATACCGGAGTCACCTAGTGCAG,11000 fluorescence intensity (a.u.)
15,CAGCAGCGAATTTTCAGTCATTTCAAACTGTCGTAGTTATCGGAGTCACCTAGTGCAG,8200 fluorescence intensity (a.u.)
16,AATTCCTTACGTTGACCATTATTTAAGCCTCAAAATCATCCGGAGTCACCTAGTGCAG,10800 fluorescence intensity (a.u.)
17,CATCCCGTGGTCACCGCACTTCTCCGGTCGTTCTGGCCGCCGGAGTCACCTAGTGCAG,8150 fluorescence intensity (a.u.)
18,TTCTTTTATCTGCTCTTTTCTTGAACATGTCGTTAGACCTCGGAGTCACCTAGTGCAG,13500 fluorescence intensity (a.u.)
19,GTTATTTTCTTCCCTTTCCTAACTTCTATCCATTCGTTTTCGGAGTCACCTAGTGCAG,16000 fluorescence intensity (a.u.)
20,TGGAAGGGGCAGGTTCGAGGTGCTGTCTGGGTATGTCAATCGGAGTCACCTAGTGCAG,11500 fluorescence intensity (a.u.)
21,GATTGCGCGGTTCTTCTGTTTCCGGCTGGCTCAGAGCCAACGGAGTCACCTAGTGCAG,9710 fluorescence intensity (a.u.)

row,Sequence,binding signal
1,CTCCACTCGTCTCCGCTATTTAAGCCGCCGTCTTCGCCTCCGGAGTCACCTAGTGCAG,9840 fluorescence intensity (a.u.)
2,CCCACCACCACCTGTGCCAGTAAACCGTTGTAGCTGAGATCGGAGTCACCTAGTGCAG,8120 fluorescence intensity (a.u.)
3,CTTCCCGCGCGCTCTATATAAAGCCATGCGCTCCCATCGCCGGAGTCACCTAGTGCAG,8400 fluorescence intensity (a.u.)
4,TCCACACCCCACCACCACCGCCGTCGCCTCCACCCCGCCGCGGAGTCACCTAGTGCAG,8160 fluorescence intensity (a.u.)
5,TTTCTTGTTTTCTTCTCATTCTTCTTTTTTTTCTTTCTTCCGGAGTCACCTAGTGCAG,14700 fluorescence intensity (a.u.)
6,GATACCTCACAGTTCACAGCTGCTGCACACCAAACAGACACGGAGTCACCTAGTGCAG,8690 fluorescence intensity (a.u.)
7,TACTTTTCTCTTTTCTTCTCATGCTATCTTGTATTTGTGACGGAGTCACCTAGTGCAG,8900 fluorescence intensity (a.u.)
8,ACATGGGTATCTATAGCTCTCTAATACATTGCCTCGTTTTCGGAGTCACCTAGTGCAG,8130 fluorescence intensity (a.u.)
9,ACTGTTCATATTGCTTTCTATCAGTAGCCTGGGATTGGGACGGAGTCACCTAGTGCAG,8610 fluorescence intensity (a.u.)
10,GATATCTCTCTATGCTTTCCGCGGTCAGTTCTTGCTGCTACGGAGTCACCTAGTGCAG,8480 fluorescence intensity (a.u.)
11,GGCATTGTCACTTCTTGTTCTTGGCAGCGAGCGCCATTTCCGGAGTCACCTAGTGCAG,11900 fluorescence intensity (a.u.)
12,TACGGACTCCATATTCCTTGACTTTACCAAATTTCGGTCTCGGAGTCACCTAGTGCAG,10300 fluorescence intensity (a.u.)
13,GCCTCTGTCTTGTCTCTCTACTCTCTGAAGTTCAGTTCAGCGGAGTCACCTAGTGCAG,9730 fluorescence intensity (a.u.)
14,TGTACACCTAATGCATCAACAATTTCTTTTGTTCTCAAGTCGGAGTCACCTAGTGCAG,9230 fluorescence intensity (a.u.)
15,TGGACATTTCACGCGCGCTCTCCGCTCCAGCCTCCAGCCACGGAGTCACCTAGTGCAG,11100 fluorescence intensity (a.u.)
16,GATTTTTTTTTTCTCGTCTCCTCGTTTTTGCTTGCCTTTCCGGAGTCACCTAGTGCAG,19200 fluorescence intensity (a.u.)
17,TTGGAGGGTGCGGGATTTTTGGGCCCTGGCTCACATGTTTCGGAGTCACCTAGTGCAG,8450 fluorescence intensity (a.u.)
18,TGTCCTTTACTTTTTTTTTCTTCTTTTCTTTTTCTTTTTCCGGAGTCACCTAGTGCAG,12800 fluorescence intensity (a.u.)
19,AGATTACCTACTGCGCCATCCACTCGCTCATCATGTTTGCCGGAGTCACCTAGTGCAG,9720 fluorescence intensity (a.u.)
20,GACCATCTCTACAACTAGTTGTACTATACTTAGCAATTGTCGGAGTCACCTAGTGCAG,8350 fluorescence intensity (a.u.)
21,TACTAGGTATCATTATACTCTATATTGTCGATTTTTTTTCCGGAGTCACCTAGTGCAG,10900 fluorescence intensity (a.u.)
